Experimental data published in the supplement of paper PMC3334620.
In all, about 33,000 sequences were measured (“E-score (-0.5 to 0.5)”: median about -0.015, highest 2% from about 0.3 on). Some of the results follow.

Target: T1, Abf1 (UniProt P14164)
T1 sequence: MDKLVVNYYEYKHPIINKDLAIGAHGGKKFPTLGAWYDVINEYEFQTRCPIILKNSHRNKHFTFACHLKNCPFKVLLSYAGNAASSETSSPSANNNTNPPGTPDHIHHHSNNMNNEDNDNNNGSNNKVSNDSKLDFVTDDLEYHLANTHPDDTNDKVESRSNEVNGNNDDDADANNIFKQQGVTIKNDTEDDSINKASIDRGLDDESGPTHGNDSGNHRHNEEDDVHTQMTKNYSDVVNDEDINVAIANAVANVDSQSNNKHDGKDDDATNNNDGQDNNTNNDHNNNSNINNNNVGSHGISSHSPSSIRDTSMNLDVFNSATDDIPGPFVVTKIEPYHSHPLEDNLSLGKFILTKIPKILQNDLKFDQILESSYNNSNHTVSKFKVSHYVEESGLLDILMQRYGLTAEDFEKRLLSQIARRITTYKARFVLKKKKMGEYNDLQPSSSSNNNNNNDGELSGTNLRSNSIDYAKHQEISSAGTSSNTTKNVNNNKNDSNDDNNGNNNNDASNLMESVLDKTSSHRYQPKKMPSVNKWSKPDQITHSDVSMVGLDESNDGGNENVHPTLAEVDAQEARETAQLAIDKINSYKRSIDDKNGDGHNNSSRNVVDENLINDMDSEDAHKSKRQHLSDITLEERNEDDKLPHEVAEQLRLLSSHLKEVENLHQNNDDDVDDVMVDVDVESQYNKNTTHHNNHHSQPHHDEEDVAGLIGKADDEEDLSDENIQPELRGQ
Test: PBM E-score (8-mer binding enrichment) (E-score (-0.5 to 0.5)); higher = stronger / more preferred TF binding
Conditions: protein concentration: 200 nM; construct: GST-full length
In short: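 Universal all-10-mer Agilent arrays, fresh or stripped once, were converted to double-stranded form by primer extension. GST-tagged yeast transcription factors from PURExpress in vitro transcription/translation, full-length or DNA-binding domain only, were applied at about 100-200 nM and detected with fluorescent anti-GST. After masliner normalisation, the Universal PBM Analysis Suite scored each ungapped eight-base word together with its reverse complement by E-score.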

Sequence	PBM E-score
GCTGCCTA	-0.0861
AATATATG	0.104
GATCTAAC	0.0538
AATTTTCT	-0.0094
AACAGTCT	-0.213
ACACGGGC	0.115
AGTACTCC	-0.194
CGTCAGCA	0.0272
ACACTGAC	-0.0754
ATTTGAAC	0.0262
ATAAATCC	0.0498
AACAAAGT	0.0675
CCCGATTC	-0.0345
CGCCGAGA	-0.0173
CGATACAC	0.0793
CTTCGTCA	0.246
CCCGCCAC	-0.159
AAAGGGCG	-0.136
TACGCCAA	-0.0663
AATCAATA	0.133
CATTGGGA	0.0169
GATCCATC	-0.0836
CATCAGCA	-0.0255
CGTGGCTA	0.0277
ACCGTTCG	0.279

Sequence	PBM E-score
CCCCGGTC	-0.265
ACGAAGAC	0.308
CGCTCTGA	-0.00883
AACGAACC	0.196
TACAGTCA	0.171
AACCAATA	0.149
AAGTGTTG	0.0736
CCCCTCCG	-0.197
ACAGCGAA	-0.0537
TGAGAGCA	-0.0853
ATCATTAA	0.307
CCAGTTGC	-0.18
TGCCCCCA	-0.238
AGGCGCCC	-0.0323
CGACAGTA	0.139
AGTACATC	0.176
ACAAAGTA	0.146
ATATTGCC	0.0422
AACACACC	-0.119
CGGCTGGA	-0.217
ACGCCCAA	-0.012
AGTGAATA	-0.0113
GGCGCAAC	0.0368
AAAGTAAC	0.0929
ACCTCTAG	0.0246

Sequence	PBM E-score
AGTAATAC	0.0597
ACCAGTGC	0.00776
AAGTGAGT	0.0964
CGGTAAGA	-0.0162
CCCACGGG	-0.0425
GCTGTCAA	0.00671
AAGGAAGG	-0.113
TCAGAACA	0.0451
CACTAGTC	-0.0679
GTGCACTA	0.139
AACTGTGC	0.106
CAAGCTCC	-0.31
AATTCCCT	-0.0703
GGCACCAC	-0.0738
CATTGCGC	-0.00712
GCGAGTAA	0.0468
ATAGACCA	-0.0989
TCCCCAGA	-0.206
ATCACCGA	0.23
TAAGTATA	0.253
AATGCAAT	-0.0812
GGTTGTTA	0.0335
CGAACCAG	-0.0817
CCCTGTCA	-0.0302
ATCGAGCG	0.0604

Sequence	PBM E-score
TCTACCAA	-0.0268
ACCCTGGA	-0.238
AGGGCAGA	-0.337
AAAATTCA	0.253
CAAAGGTC	-0.119
AGTACCCG	0.0797
ACGGTTGA	0.171
ACAGACCT	-0.0877
GATCTACA	0.169
AGTCTTCG	0.105
GGGAACGA	-0.0829
AATCGGAT	0.0329
CCAGTCGA	0.024
CAGTGGGA	-0.194
GGGTTGGA	-0.202
CATCAAAC	0.0039
AAATAGTG	0.24
CTTACGGA	0.121
CGGAGAAG	-0.205
CCCACAAA	0.0336
GACTGGAA	-0.133
AGTAAGAT	0.0847
CTCCTGGC	-0.218
AACTCTCA	0.00063
CGCGTTGA	0.0564

Exported in markdown: part of the list above

| Sequence | PBM E-score |
| --- | --- |
| GGGAACGA | -0.0829 |
| CAGTGGGA | -0.194 |
| GGGTTGGA | -0.202 |
| CATCAAAC | 0.0039 |
| CTTACGGA | 0.121 |
| CGGAGAAG | -0.205 |
| CCCACAAA | 0.0336 |

(cont.)

Sequence	PBM E-score
CCGAAGAC	-0.107
GGAAGCCC	-0.113
ATCCAGGC	-0.092
CTCTAGCC	-0.0808
AACCCGAG	-0.0688
CTCGCCGC	-0.185
CGTAGAGA	0.147
GCCCTCAA	-0.163
CTGTCGTA	0.251
ACCGGAGA	-0.04
GGTCCCTA	-0.132
CGATATAC	0.204
ATCCACGC	0.0014
GTTTTACA	-0.0536
CTCTATTC	-0.221
GTAATGAC	0.206
CTTCTCAA	-0.0242
ACGTGCTA	0.0443
CACTGCGA	0.00219
CAATTCGC	0.0755
GTAAGAGA	-0.0167
CTGGGTTC	-0.0606
AGGAGACA	0.0313
ACCTTTAT	-0.15
GCGTACCC	-0.305

For convenience, some entries already given.
Sequence	PBM E-score
CGATATAC	0.204
ATCCACGC	0.0014
GTTTTACA	-0.0536

Remaining list, next part:

Sequence	PBM E-score
GTAGGTTA	-0.0271
GTCTAAGA	0.00869
GGCGGAGA	-0.00874
GCATCGGC	-0.17
GGCCCCGA	0.0226
GAACCAGA	-0.2
AGATAGAG	-0.0524
CAAGTTCC	-0.155
AAGTAGCG	0.11
CGGTCAAG	-0.0987
ACTGTAAC	0.00878
ACGCATCA	0.231
CAGTTGAA	0.0382
CGGGTGCC	-0.0683
ATGGCACC	-0.137
AGTTTTAC	-0.175
CTTGACCA	-0.131
CGCGTTGC	0.0553
ACGTGGTG	-0.0809
GGGGGTCA	-0.203
TGTTTGAA	-0.101
AGAATTCG	0.0655
GACGCGTC	0.12
CGGCTAAA	-0.0879
AGGATGCG	0.179

Sequence	PBM E-score
ACTAGAAG	-0.0705
GTTCCGTA	0.236
AACATGCG	0.0369
CCTAACGA	0.235
AAAAAGAT	0.0794
AGGAAGTA	-0.108
CTCCCCGC	-0.154
AAAAGGGA	-0.0917
GTATACCA	-0.122
AAACACTA	0.0573
AAACTTGT	0.0507
CGATCTCA	0.0718
GGGCCGAA	-0.289
ATCCGCAT	0.0353
CTAGAACC	-0.0756
ACATTGCA	-0.0641
ACGTTCTG	0.152
CATGAAGC	-0.103
AACGCCCG	-0.116
CCCCGAGG	-0.183
CGGTTAGA	0.0396
AGTCAAGG	-0.144
